In PMC11799252, “The differentiation state of small intestinal organoid models influences prediction of drug-induced toxicity” (Frontiers in Cell and Developmental Biology, 2025):

Test system: differentiated duodenum organoids
Assay: Cell viability (Cell Titer Glo 3D, ATP) in differentiated organoid model
Conditions: Homo sapiens, read-out: IC50 (μM) Diff.
Experimental: Organoids were grown for 7–10 days then dissociated using TrypLE™ Express Enzyme, as described above. Single cells were resuspended in BME at a density of 5–6 × 10^5 cells/mL on ice and plated as 5 μL/well domes in clear-bottom 96-well plates (Corning). The domes were cured for 10–15 min at 37°C and overlaid with 100 μL of growth media replaced every 2–3 days.
Compounds were administered after 5–6 days in growth medium for proliferative organoids or after an additional 4 days in differentiation medium for differentiated organoids. Organoid media was replaced with 90 μL fresh media immediately prior to dosing. […] Luminescence was measured on EnSight and EnVision (Perkin Elmer) plate readers and normalized to on-plate vehicle controls (0.5%–1% DMSO) in corresponding growth or differentiation medium. […]
To compare toxicity responses of proliferative and differentiated organoids, proliferative organoids were grown 5–6 days in OGM prior to dosing, while differentiated organoids were transitioned to ODM for an additional 4 days prior to dosing (Figure 2A). Both proliferative and differentiated organoids were incubated with compounds or a 0.5%–1% DMSO vehicle control (as indicated) for 3 days prior to measuring ATP levels as a readout for cell viability. […]

Work on `COc1cc2c(c(OC)c1OC)-c1ccc(OC)c(=O)cc1[C@@H](NC(C)=O)CC2` [colchicine] yielded an IC50 of 0.084 µM.
